One substance from PMC3540032, “Comprehensive Analysis and Identification of the Human STIM1 Domains for Structural and Functional Studies” (PLoS ONE, 2013) can be followed below.

These are yes or no findings as the source states them, for the method shown.

This test concerns the target Orai1 C-terminal peptide with an extra N-terminal Cys. Description: SPR; Biacore T200; Orai1 peptide immobilised on a CM5 chip by ligand thiol coupling at 1000 RU; analytes injected at 10 µM; HBS-EP buffer (20 mM HEPES, pH 7.4, 150 mM NaCl, 3.4 mM EDTA, 0.005% Polysorbate 20), 30 µL/min; both purified. A general note: SPR reads the build-up and loss of mass on a sensor chip optically.

Consider “Lysozyme (from UniProt P00698 19-147) (enzyme)”, for which the binding entry is “no binding (tested: approximately 10 µM)”.
